In all, about 320,000 compounds went through this assay and about 740 (0.23%) were called active. The shares of active, inactive and inconclusive entries below differ from those in the screen. Calls come from the whole dose curve; as a rule, active = well fitted activation curve with a large enough effect; inconclusive = small, poorly fitted or top-dose-only effect; inactive = no such curve, though single readings can be large or run the other way. Potencies beside an inconclusive call are fits to weak or partial responses and may not hold up.
assay: qHTS Assay for Small Molecule Inhibitors of Mitochondrial Division or Activators of Mitochondrial Fusion; note: nearly all actives have a fitted effect of over 45% in size;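 for growth rescue (activation): temperature-sensitive fusion mutants such as fzo1-1 at 37 °C on non-fermentable ethanol glycerol medium; % of control where 0% means no effect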; details: S. cerevisiae fusion-defective mutant growth rescue, CellTiterGlo 48 h; growth rescue (activation): at 46.1 µM (top of the series) unless noted
Method in brief: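 Luminescent cell viability in 1536-well qHTS format served as the measure of rescued growth in ts fusion-mutant S. cerevisiae cultured on non-fermentable YPEG for 48 hours at 37C.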
Potency is the fitted concentration of half-maximal effect.

Structure (SMILES)	Potency	growth rescue (activation)
Cc1cc(C)nc(NN=C(c2ccccc2)c2ccccc2)n1	inconclusive: 20 µM [activator, single point]	
CCN(Cc1ccccc1)C(c1ccccn1)c1nnnn1C1CCCCC1 (centres undefined)	inconclusive: 17.8 µM [activator, partial curve]	
Cc1ccn2cc(-c3cnoc3C)nc2c1		inactive: -1.34%
Nc1nc(-c2cccnc2)nc2sc3c(c12)CCCC3		inactive: -14.3%
C=CCc1cc(Cl)ccc1OCCNCCOC	inconclusive: 3.16 µM [activator, partial curve]	
Cc1ccc(C)c(NC(=O)c2ccccc2NS(=O)(=O)c2cc([N+](=O)[O-])ccc2C)c1		inactive: 11.7%
NC(=O)c1ccc2nc(-c3ccccc3)c(-c3ccccc3)nc2c1	inconclusive: 25.1 µM [activator, partial curve, poor fit]	
CCCC1CCc2c(sc(NC(=O)OCC)c2C#N)C1 (centres undefined)	inconclusive: 14.1 µM [activator, partial curve]	
O=C(CCl)Nc1ccc(N2CCCCCC2)cc1	inconclusive: 22.4 µM [activator, partial curve]	
C=CCNC(=O)c1n[nH]c2c1CC(C(C)(C)CC)CC2 (centres undefined)	inconclusive: 3.55 µM [activator, partial curve]	
Cc1cc(NC(=O)c2ccoc2C)ccc1Br	inconclusive: 14.1 µM [activator, partial curve]	
CCOC(=O)c1c(NC(=O)CSc2nnc(-c3cccnc3)o2)sc(C(C)=O)c1C		inactive: -2.98%
Cc1ccccc1N=C(NOCc1ccccc1)c1nonc1N	active: 22.4 µM	
CC1C/C(=C/c2cccn2C)C(=O)/C(=C/c2cccn2C)C1 (centres undefined)	inconclusive: 17.8 µM [activator, single point]	
CC(=O)OCC(=O)Nc1ccc([N+](=O)[O-])cc1Cl		inactive: 14.9%
Cc1ccc(NC(=S)NC(=O)c2ccc(F)cc2)cc1S(=O)(=O)Nc1ccccc1Cl	inconclusive: 7.08 µM [activator, partial curve]	
COc1cccc(-c2ncc3ccccc3c2COC(=O)N2CCCCC2)c1	inconclusive: 22.4 µM [activator, single point]	
C=CCOc1c(CNc2ccc3[nH]c(=O)[nH]c3c2)cccc1OC		inactive: -5.9%
Cc1ccc(C)c(N2CCN(C(=O)CCCn3c(=O)c4cccn4c4cccnc43)CC2)c1	inconclusive: 15.8 µM [activator, partial curve]	
CCOc1ccccc1C(=O)Nc1cccc(-c2ccc3nncn3n2)c1	inconclusive: 11.2 µM [activator, single point]	
O=C(NC(=S)Nc1nc(-c2ccc(Br)cc2)cs1)c1ccco1		inactive: -2.57%
Cc1ccc(C2=NC3(CCCC3)N=C2SCC(=O)Nc2ccc3c(c2)OCCO3)cc1	inconclusive: 35.5 µM [activator, single point]	
C#CCOC(=O)c1cc(Cl)c(=O)n(Cc2ccc(Cl)cc2Cl)c1	inconclusive: 35.5 µM [activator, single point]	
O=C(OCC(=O)N(CCc1ccccc1)Cc1ccccc1)c1ccccc1O	inconclusive: 31.6 µM [activator, single point]	
CN(C)Cc1cc(C(C)(C)C)c(O)c(C(C)(C)C)c1		inactive: 3.02%

Two compounds drawn at random from those above:
Structure (SMILES)	Potency	growth rescue (activation)
Cc1ccc(C2=NC3(CCCC3)N=C2SCC(=O)Nc2ccc3c(c2)OCCO3)cc1	inconclusive: 35.5 µM [activator, single point]	
Cc1ccc(C)c(N2CCN(C(=O)CCCn3c(=O)c4cccn4c4cccnc43)CC2)c1	inconclusive: 15.8 µM [activator, partial curve]	

The list continues:

Structure (SMILES)	Potency	growth rescue (activation)
COc1cc(NS(=O)(=O)c2ccc(OC)c(C)c2C)c(OC)cc1Cl	inconclusive: 35.5 µM [activator, single point]	
O=C(c1cccs1)N1N=C(c2ccccc2)CC1c1ccc(O)cc1 (centres undefined)	inconclusive: 15.8 µM [activator, single point]	
O=C(Nc1ccccc1)c1ccc(Br)o1		inactive: -6.07%
CC1CCN(C(=O)c2ccc(-c3ccccc3Cl)o2)CC1	active: 15.8 µM	
O=C(COc1ccc(Cl)cc1Cl)NNC(=S)NC(=O)c1ccco1		inactive: -13.1%
Cc1cc(S(=O)(=O)NCCC2=CCCCC2)ccc1Br	inconclusive: 22.4 µM [activator, single point]	
CCCCCCSc1nsc(NC(=O)CC(C)C)n1	inconclusive: 35.5 µM [activator, single point]	
CN(C)CCCNc1nc(N)c([N+](=O)[O-])c(NCc2ccccc2)n1	inconclusive: 5.62 µM [activator, single point]	
C/C(=N\NC(=S)Nc1c(C)cccc1C)c1cc2ccccc2o1	inconclusive: 17.8 µM [activator, single point]	
NC(=O)C1CCN(C(=O)CCC(=O)c2ccc(Br)cc2)CC1	inconclusive: 35.5 µM [activator, single point]	
O=C(N/N=C/c1cccnc1)c1ccc([N+](=O)[O-])cc1Cl		inactive: -0.48%
CCC(=O)N1N=C(c2ccc(C)o2)CC1c1ccc(Br)cc1 (centres undefined)	inconclusive: 35.5 µM [activator, single point]	
Cc1ccnc(N2CCN(C(=O)CSc3nc4ccccc4nc3N3CCCCC3)CC2)c1	inconclusive: 11.2 µM [activator, single point]	
CCSc1nc(CC)c2c(c1C#N)CCCC2	active: 8.91 µM	
CC(Nc1cccc2ccccc12)C(=O)N/N=C/c1ccc([N+](=O)[O-])cc1 (centres undefined)	inconclusive: 11.2 µM [activator, partial curve]	
O=C(Nc1ccc(Cl)cn1)C1CCCN(c2ncnc3c2nc2n3CCCCC2)C1 (centres undefined)	inconclusive: 35.5 µM [activator, partial curve]	
COc1cccc(/C=N/NC(N)=S)c1OCc1ccccc1Cl		inactive: 25%
CCCS(=O)(=O)N1CCN(C(=O)c2ccc(-c3ccccc3)cc2)CC1		inactive: -8.27%
O=C(NCC1CC1)Nc1ccc(Cl)cc1		inactive: 5.38%
CCOC(=O)c1c(-c2ccc(OC)cc2)oc2ccc(O)cc12	inconclusive: 12.6 µM [activator, partial curve]	
CCCCN(C)S(=O)(=O)c1ccc(C(=O)N=c2sc3cc(NC(C)=O)ccc3n2C)cc1		inactive: -0.35%
Fc1cccc(Cl)c1CSc1nnc(-c2ccncc2)o1		inactive: 1.53%
COc1cccc(CSc2nnc(-c3ccco3)n2C)c1	inconclusive: 3.16 µM [activator, partial curve]	
Cc1ccc(O)c(NC(=O)C2CC(c3ccc(F)cc3)=NO2)c1 (centres undefined)	inconclusive: 35.5 µM [activator, single point]	

Reference: PubChem BioAssay AID485298 (National Center for Advancing Translational Sciences (NCATS), 2010)
